According to PMC11673421:
Results are given in words; binding and its absence hold for the method and conditions named. Binding seen in cells or lysates may run through a third protein. A yes stands for co-enrichment or nearness to the bait. Other partners may have been found.

Chains of the proteins cited; added tags and fusions are not shown. Residues count along the entry.
UniProt Q9NXA8, residues 37-310: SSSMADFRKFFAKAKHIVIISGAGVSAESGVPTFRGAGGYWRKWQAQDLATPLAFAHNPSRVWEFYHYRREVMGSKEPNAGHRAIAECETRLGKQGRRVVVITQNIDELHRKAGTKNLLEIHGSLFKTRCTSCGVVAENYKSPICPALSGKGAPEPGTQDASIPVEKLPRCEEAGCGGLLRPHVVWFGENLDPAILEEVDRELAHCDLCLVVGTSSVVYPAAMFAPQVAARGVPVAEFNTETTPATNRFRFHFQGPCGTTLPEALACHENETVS
UniProt Q9DBM2: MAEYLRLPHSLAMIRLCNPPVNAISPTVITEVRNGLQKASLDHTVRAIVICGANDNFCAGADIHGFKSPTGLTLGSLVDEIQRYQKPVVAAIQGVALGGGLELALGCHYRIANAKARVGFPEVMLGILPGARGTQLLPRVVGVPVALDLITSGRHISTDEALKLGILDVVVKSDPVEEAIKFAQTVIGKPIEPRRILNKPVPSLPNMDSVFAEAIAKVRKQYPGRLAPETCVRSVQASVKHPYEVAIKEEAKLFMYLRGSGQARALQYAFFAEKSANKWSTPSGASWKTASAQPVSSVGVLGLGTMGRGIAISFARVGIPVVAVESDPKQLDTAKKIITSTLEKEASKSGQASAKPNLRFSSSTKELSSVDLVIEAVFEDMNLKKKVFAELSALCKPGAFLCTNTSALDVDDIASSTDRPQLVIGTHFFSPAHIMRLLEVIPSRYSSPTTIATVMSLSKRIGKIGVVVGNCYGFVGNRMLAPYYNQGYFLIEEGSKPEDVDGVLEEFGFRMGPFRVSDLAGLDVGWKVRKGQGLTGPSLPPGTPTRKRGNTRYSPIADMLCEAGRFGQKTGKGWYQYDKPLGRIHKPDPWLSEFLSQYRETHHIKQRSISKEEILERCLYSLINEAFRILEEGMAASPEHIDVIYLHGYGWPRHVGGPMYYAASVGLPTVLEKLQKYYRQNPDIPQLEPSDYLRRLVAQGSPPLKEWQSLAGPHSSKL
UniProt Q99P30: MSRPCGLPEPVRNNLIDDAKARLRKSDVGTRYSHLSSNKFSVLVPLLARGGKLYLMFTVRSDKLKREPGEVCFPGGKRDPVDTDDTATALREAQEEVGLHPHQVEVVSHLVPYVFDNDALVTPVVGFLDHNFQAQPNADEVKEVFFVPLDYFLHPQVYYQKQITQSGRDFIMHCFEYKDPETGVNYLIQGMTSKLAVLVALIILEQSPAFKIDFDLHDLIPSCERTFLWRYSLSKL
UniProt O35488: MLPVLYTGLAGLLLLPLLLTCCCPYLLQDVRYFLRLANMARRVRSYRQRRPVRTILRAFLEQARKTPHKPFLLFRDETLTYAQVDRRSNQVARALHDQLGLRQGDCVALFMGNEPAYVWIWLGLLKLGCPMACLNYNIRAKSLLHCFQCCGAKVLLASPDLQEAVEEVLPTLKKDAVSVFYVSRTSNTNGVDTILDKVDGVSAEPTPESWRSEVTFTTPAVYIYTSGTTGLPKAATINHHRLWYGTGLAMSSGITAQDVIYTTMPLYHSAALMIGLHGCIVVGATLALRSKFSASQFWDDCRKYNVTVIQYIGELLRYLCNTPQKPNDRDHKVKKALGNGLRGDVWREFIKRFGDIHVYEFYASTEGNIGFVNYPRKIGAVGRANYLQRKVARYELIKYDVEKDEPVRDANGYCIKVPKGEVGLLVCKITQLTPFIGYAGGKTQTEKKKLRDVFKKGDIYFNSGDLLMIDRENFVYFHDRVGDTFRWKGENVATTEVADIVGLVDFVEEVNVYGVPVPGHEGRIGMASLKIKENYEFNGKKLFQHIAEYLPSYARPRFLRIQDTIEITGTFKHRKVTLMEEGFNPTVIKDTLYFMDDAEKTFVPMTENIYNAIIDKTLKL

What follows are molecules tested against recombinant 6His tagged SIRT5 (human sirtuin-5) (human) (UniProt Q9NXA8) (assay: affinity purification with mass spectrometry; 5 ug recombinant 6His-SIRT5 added to pre-cleared SIRT5KO mouse liver lysate in RIPA buffer, 37 C for 30 min; polyHis-antibody agarose overnight at 4 C; 4 washes with RIPA; SDS-PAGE bands excised and identified by mass spectrometry; only the target purified).

| Molecule | binding |
| --- | --- |
| Peroxisomal bifunctional enzyme type 1 (EHHADH) (from UniProt Q9DBM2 1-718) | binds |
| Peroxisomal coenzyme A diphosphatase (NUDT7) (from UniProt Q99P30 1-236) | binds |
| Very long-chain acyl-CoA synthetase (SLC27A2) (from UniProt O35488 1-620) (enzyme) | binds |
| Uricase (UOX) (enzyme, UniProt P25688 1-303) MAHYHDNYGKNDEVEFVRTGYGKDMVKVLHIQRDGKYHSIKEVATSVQLTLRSKKDYLHGDNSDIIPTDTIKNTVHVLAKLRGIRNIETFAMNICEHFLSSFNHVTRAHVYVEEVPWKRFEKNGIKHVHAFIHTPTGTHFCEVEQMRNGPPVIHSGIKDLKVLKTTQSGFEGFLKDQFTTLPEVKDRCFATQVYCKWRYQRRDVDFEAIWGAVRDIVLQKFAGPYDKGEYSPSVQKTLYDIQVLSLSQLPEIEDMEISLPNIHYFNIDMSKMGLINKEEVLLPLDNPYGKITGTVKRKLPSRL | binds |
| Non-specific lipid-transfer protein (SCP2) (enzyme, UniProt P32020 1-547) MPSVALKSPRLRRVFVVGVGMTKFMKPGGENSRDYPDMAKEAGQKALEDAQIPYSAVEQACVGYVYGDSTSGQRAIYHSLGLTGIPIINVNNNCSTGSTALFMAHQLIQGGLANCVLALGFEKMERGSIGTKFSDRTTPTDKHIEVLIDKYGLSAHPITPQMFGYAGKEHMEKYGTKVEHFAKIGWKNHKHSVNNTYSQFQDEYSLEEVMKSKPVFDFLTILQCCPTSDGAAAAILSSEEFVQQYGLQSKAVEIVAQEMMTDLPSTFEEKSIIKVVGYDMSKEAARRCYEKSGLTPNDVDVIELHDCFSVNELITYEALGLCPEGQGGTLVDRGDNTYGGKWVINPSGGLISKGHPLGATGLAQCAELCWQLRGEAGKRQVPGAKVALQHNLGLGGAVVVTLYRMGFPEAASSFRTHQVSAAPTSSAGDGFKANLVFKEIEKKLEEEGEQFVKKIGGIFAFKVKDGPGGKEATWVVDVKNGKGSVLPNSDKKADCTITMADSDLLALMTGKMNPQSAFFQGKLKIAGNMGLAMKLQNLQLQPGKAKL | binds |
| Peroxisomal sarcosine oxidase (PIPOX) (enzyme, UniProt Q9D826 1-390) MAAQTDFWDAIVIGAGIQGCFTAYHLAKHSKSVLLLEQFFLPHSRGSSHGQSRIIRKAYPEDFYTMMMKECYQTWAQLEREAGTQLHRQTELLLLGTKENPGLKTIQATLSRQGIDHEYLSSVDLKQRFPNIRFTRGEVGLLDKTGGVLYADKALRALQHIICQLGGTVCDGEKVVEIRPGLPVTVKTTLKSYQANSLVITAGPWTNRLLHPLGIELPLQTLRINVCYWREKVPGSYGVSQAFPCILGLDLAPHHIYGLPASEYPGLMKICYHHGDNVDPEERDCPKTFSDIQDVQILCHFVRDHLPGLRAEPDIMERCMYTNTPDEHFILDCHPKYDNIVIGAGFSGHGFKLAPVVGKILYELSMKLPPSYDLAPFRMSRFSTLSKAHL | binds |
| Lon protease homolog 2, peroxisomal (LONP2) (enzyme, UniProt Q9DBN5 1-852) MSSVSPIQIPSRLPLLLTHESVLLPGSTMRTSVDTARNLQLVRSRLLKGTSLQSTILGVIPNTPDPASDTQDLPPLHRIGTAALAVQVVGSNWPKPHYTLLITGLCRFQIVQVLKEKPYPVAEVEQLDRLEEFPNICKSREELGELSEQFYRYAVQLVEMLDMSVPAVAKLRRLLDNLPREALPDILTSIIRTSNKEKLQILDAVSLEDRFKMTIPLLVRQIEGLKLLQKTRKPKQDDDKRVIAIRPIRRIPHIPGTLEDEEEEEDNDDIVMLEKKIRTSSMPEQAHKVCVKEIKRLKKMPQSMPEYALTRNYLELMVELPWNKSTTDRLDIRAARILLDNDHYAMEKLKRRVLEYLAVRQLKNNLKGPILCFVGPPGVGKTSVGRSVAKTLGREFHRIALGGVCDQSDIRGHRRTYVGSMPGRIINGLKTVGVNNPVFLLDEVDKLGKSLQGDPAAALLEVLDPEQNHNFTDHYLNVAFDLSQVLFIATANTTATIPPALLDRMEIIQVPGYTQEEKIEIAHRHLIPKQLEQHGLTPQQIQIPQHTTLAIITRYTREAGVRSLDRKFGAICRAVAVKVAEGQHKEAKLDRSDVADGEGCKEHVLEDAKPESISDTADLALPPEMPILIDSHALKDILGPPLYELEVSERLSQPGVAIGLAWTPLGGKIMFVEASRMDGEGQLTLTGQLGDVMKESAHLAISWLRSNAKKYHLTNAFGSFDLLDNTDIHLHFPAGAVTKDGPSAGVTIVTCLASLFSGRLVRSDVAMTGEITLRGLVLPVGGIKDKVLAAHRAGLKQIIIPQRNEKDLEEIPSNVRQDLSFVTASCLDEVLNAAFDGGFPVKTRPGLIDSKL | binds |
| 3-ketoacyl-CoA thiolase B (ACAA1b) (enzyme, UniProt Q8VCH0 27-424) SAGFLQASASDVVVVHGRRTPIGRASRGCFKDTTPDELLSAVLTAVLQDVKLKPEQLGDISVGNVLQPGAGAIMARIAQFLSGIPETVPLSTVNRQCSSGLQAVANIAGGIRNGSYDIGMACGVESMTLSQRGNHGNISSRLLENEKARDCLIPMGITSENVAERFGVSRQKQDAFALASQQKAASAQSRGCFHAEIVPVTTTVLNDKGDKKTITVSQDEGVRPSTTMQGLAKLKPAFKDGGSTTAGNSSQVSDGAAAVLLARRSKAEELGLPILGVLRSYAVVGVPPDVMGIGPAYAIPAALQKAGLTVNDIDIFEINEAFASQAVYCVEKLGIPAEKVNPLGGAIALGHPLGCTGARQVVTLLNELKRRGRRAYGVVSMCIGTGMGAAAVFEYPGN | binds |
| Peroxisomal bifunctional enzyme type 2 (HSD17B4) (enzyme, UniProt P51660 1-735) MASPLRFDGRVVLVTGAGGGLGRAYALAFAERGALVIVNDLGGDFKGIGKGSSAADKVVAEIRRKGGKAVANYDSVEAGEKLVKTALDTFGRIDVVVNNAGILRDRSFSRISDEDWDIIHRVHLRGSFQVTRAAWDHMKKQNYGRILMTSSASGIYGNFGQANYSAAKLGILGLCNTLAIEGRKNNIHCNTIAPNAGSRMTETVLPEDLVEALKPEYVAPLVLWLCHESCEENGGLFEVGAGWIGKLRWERTLGAIVRKRNQPMTPEAVRDNWEKICDFSNASKPQTIQESTGGIVEVLHKVDSEGISPNRTSHAAPAATSGFVGAVGHKLPSFSSSYTELQSIMYALGVGASVKNPKDLKFVYEGSADFSCLPTFGVIVAQKSMMNGGLAEVPGLSFNFAKALHGEQYLELYKPLPRSGELKCEAVIADILDKGSGVVIVMDVYSYSGKELICYNQFSVFVVGSGGFGGKRTSEKLKAAVAVPNRPPDAVLRDATSLNQAALYRLSGDWNPLHIDPDFASVAGFEKPILHGLCTFGFSARHVLQQFADNDVSRFKAIKVRFAKPVYPGQTLQTEMWKEGNRIHFQTKVHETGDVVISNAYVDLVPASGVSTQTPSEGGELQSALVFGEIGRRLKSVGREVVKKANAVFEWHITKGGTVAAKWTIDLKSGSGEVYQGPAKGSADVTIIISDEDFMEVVFGKLDPQKAFFSGRLKARGNIMLSQKLQMILKDYAKL | binds |
| Acyl-CoA dehydrogenase 11 (ACAD11) (enzyme, UniProt Q80XL6 1-779) METDVTSDTVEVLPQHKFDLRSLEAYLNQHLPGFGSDSRAVLTVTQYRSGQSNPTFFLQKGSQAYVLRKKPPGSLLPKAHKIDREFKIQKALFSIGFPVAKPLLYCRDASVIGTEFYVMEHVQGRIFRDFSIPGVSSAERAAIYVSVAETLAWLHSLDIRSLKLDKYGTGVGYCKRQVSTWTKQYQASAHQSIPAMDQLSTWLMKNLPDSDSEECLVHGDFKLDNIVFHPKECRVIAVLDWELSTFGHPLTDLAHLSLFYYWPRTLPMINRGSHIPENTGIPLMEELISIYCHRRGIDPNLPNWNFFMALSFFKLAGISQGVYRRYLMGNNSSEDSFLTANTVQPLAETGLQLSKRTLRTTPPQADAKSQLFAQSRRGQEVLTRVKQFMKQHVFPAEKEVAEYYAQSGNSAEKWGHPLVIEKLKEMAKAEGLWNLFLPAVSGLSQVDYALIAEETGKCFFAPDVFNCQAPDTGNMEVLHLYGSEQQKKQWLEPLLRGDITSVFCMTEPNVSSSDATNIECTIQRDGGGYIVNGKKWWSSGAGNPKCKIAIVLGRTESPSASRHRQHSMILVPMDTPGVELIRPLSVFGYMDNMHGGHWEVHFNHVRVPASNLILGEGRGFEISQGRLGPGRIHHCMRTVGLAERILQIMCDRAVQREAFKKKLYEHEVVAHWIAKSRIAIEEIRLLTLKAAHSIDTLGSASARKEIAMIKVAAPKAVCKIADWAIQVHGGAGVSQDYPLANMYAIIRTLRLADGPDEVHLSAIAKMELQDQARRLTARM | binds |
| Peroxisomal 2,4-dienoyl-CoA reductase (DECR2) (enzyme, UniProt Q9WV68 1-292) MAQPPPDVEGDDCLPEYHHLFCPDLLQDKVAFITGGGSGIGFRIAEIFMRHGCHTVIVGRSLQKVTTAAKKLVAATGKRCLPLSMDVRVPPEVMTAVDQALQEFGKINILINCAAGNFLCPASALSFNAFKTVVDIDTIGTFNVSSVLYKKFFRDHGGVIVNITATLSMRGQVLQLHAGAAKAAVDAMTRHLAVEWGPQNIRVNSLAPGAISGTEGLRRLRGSNASSKLKHFSNPIPRLGTKTEIAHSVLYLASPLASYVSGIVLVVDGGSWMTFPNGIKQLLEFESFSAKL | binds |
| Peroxisomal acyl-coenzyme A oxidase 1 (ACOX1) (enzyme, UniProt Q9R0H0 1-661) MNPDLRKERAAATFNPELITHILDGSPENTRRRREIENLILNDPDFQHEDYNFLTRSQRYEVAVKKSATMVKKMREFGIADPEEIMWFKKLHMVNFVEPVGLNYSMFIPTLLNQGTTAQQEKWMHPSQELQIIGTYAQTEMGHGTHLRGLETTATYDPKTQEFILNSPTVTSIKWWPGGLGKTSNHAIVLAQLITRGECYGLHAFVVPIREIGTHKPLPGITVGDIGPKFGYEEMDNGYLKMDNYRIPRENMLMKYAQVKPDGTYVKPLSNKLTYGTMVFVRSFLVGSAAQSLSKACTIAIRYSAVRRQSEIKRSEPEPQILDFQTQQYKLFPLLATAYAFHFLGRYIKETYMRINESIGQGDLSELPELHALTAGLKAFTTWTANAGIEECRMACGGHGYSHSSGIPNIYVTFTPACTFEGENTVMMLQTARFLMKIYDQVQSGKLVGGMVSYLNDLPSQRIQPQQVAVWPTLVDINSLDSLTEAYKLRAARLVEIAAKNLQAQVSHRKSKEVAWNLTSVDLVRASEAHCHYVTVKVFADKLPKIQDRAVQAVLRNLCLLYSLYGISQKGGDFLEGNIITGAQMSQVNSRILELLTVTRPNAVALVDAFDFKDVTLGSVLGRYDGNVYENLFEWAKKSPLNKTEVHESYYKHLKPLQSKL | binds |
| Catalase (CAT) (enzyme, UniProt P24270 1-527) MSDSRDPASDQMKQWKEQRASQRPDVLTTGGGNPIGDKLNIMTAGSRGPLLVQDVVFTDEMAHFDRERIPERVVHAKGAGAFGYFEVTHDITRYSKAKVFEHIGKRTPIAVRFSTVTGESGSADTVRDPRGFAVKFYTEDGNWDLVGNNTPIFFIRDAILFPSFIHSQKRNPQTHLKDPDMVWDFWSLRPESLHQVSFLFSDRGIPDGHRHMNGYGSHTFKLVNADGEAVYCKFHYKTDQGIKNLPVGEAGRLAQEDPDYGLRDLFNAIANGNYPSWTFYIQVMTFKEAETFPFNPFDLTKVWPHKDYPLIPVGKLVLNKNPVNYFAEVEQMAFDPSNMPPGIEPSPDKMLQGRLFAYPDTHRHRLGPNYLQIPVNCPYRARVANYQRDGPMCMHDNQGGAPNYYPNSFSAPEQQRSALEHSVQCAVDVKRFNSANEDNVTQVRTFYTKVLNEEERKRLCENIAGHLKDAQLFIQKKAVKNFTDVHPDYGARIQALLDKYNAEKPKNAIHTYTQAGSHMAAKGKANL | binds |
